Experimental data published in publication PMC12204631.

T1: 6HIS-HA-JHD2 (S. cerevisiae) (UniProt P47156)
T1 sequence: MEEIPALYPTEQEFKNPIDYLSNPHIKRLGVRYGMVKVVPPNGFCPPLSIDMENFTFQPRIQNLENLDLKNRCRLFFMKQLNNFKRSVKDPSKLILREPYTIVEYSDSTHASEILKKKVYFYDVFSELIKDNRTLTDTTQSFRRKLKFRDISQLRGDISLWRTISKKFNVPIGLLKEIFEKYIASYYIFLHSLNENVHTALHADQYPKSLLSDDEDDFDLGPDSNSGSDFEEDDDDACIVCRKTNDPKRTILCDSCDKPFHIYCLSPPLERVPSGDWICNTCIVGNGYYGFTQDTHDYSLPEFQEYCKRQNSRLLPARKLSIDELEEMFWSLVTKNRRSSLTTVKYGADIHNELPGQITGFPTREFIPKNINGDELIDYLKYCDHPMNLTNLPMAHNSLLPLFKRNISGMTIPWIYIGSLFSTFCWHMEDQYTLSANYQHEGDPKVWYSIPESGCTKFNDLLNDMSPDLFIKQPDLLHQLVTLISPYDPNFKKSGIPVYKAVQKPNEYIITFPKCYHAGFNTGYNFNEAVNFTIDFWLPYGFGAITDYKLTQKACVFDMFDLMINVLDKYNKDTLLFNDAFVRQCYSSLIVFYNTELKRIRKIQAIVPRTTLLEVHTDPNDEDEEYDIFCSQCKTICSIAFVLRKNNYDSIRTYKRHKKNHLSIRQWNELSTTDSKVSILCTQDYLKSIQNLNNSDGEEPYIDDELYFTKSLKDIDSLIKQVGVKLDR

B1: CHL1 (protein, UniProt P22516 1-861)
chain: MDKKEYSETFYHPYKPYDIQVQLMETVYRVLSEGKKIAILESPTGTGKTLSLICATMTWLRMNKADIFTRMETNIKTNEDDSENLSDDEPDWVIDTYRKSVLQEKVDLLNDYEKHLNEINTTSCKQLKTMCDLDKEHGRYKSVDPLRKKRKGARHLDVSLEEQDFIPRPYESDSENNDTSKSTRGGRISDKDYKLSELNSQIITLLDKIDGKVSRDPNNGDRFDVTNQNPVKIYYASRTYSQLGQFTSQLRLPSFPSSFRDKVPDEKVKYLPLASKKQLCINPKVMKWKTLEAINDACADLRHSKEGCIFYQNTNEWRHCPDTLALRDMIFSEIQDIEDLVPLGKSLGICPYYASREALPIAEVVTLPYQYLLSESTRSSLQINLENSIVIIDEAHNLIETINSIYSSQISLEDLKNCHKGIVTYFNKFKSRLNPGNRVNLLKLNSLLMTLIQFIVKNFKKIGQEIDPNDMFTGSNIDTLNIHKLLRYIKVSKIAYKIDTYNQALKEEESSKNENPIKETHKKSVSSQPLLFKVSQFLYCLTNLTSEGQFFFEKNYSIKYMLLEPSKPFESILNQAKCVVLAGGTMEPMSEFLSNLLPEVPSEDITTLSCNHVIPKENLQTYITNQPELEFTFEKRMSPSLVNNHLFQFFVDLSKAVPKKGGIVAFFPSYQYLAHVIQCWKQNDRFATLNNVRKIFYEAKDGDDILSGYSDSVAEGRGSLLLAIVGGKLSEGINFQDDLCRAVVMVGLPFPNIFSGELIVKRKHLAAKIMKSGGTEEEASRATKEFMENICMKAVNQSVGRAIRHANDYANIYLLDVRYNRPNFRKKLSRWVQDSINSEHTTHQVISSTRKFFSMRSLNSR
B2: GIP4 (protein, UniProt P39732 1-760)
chain: MVDVQKRKKLLAKAAASASIPAIKGSVPLDSYDIKIIQYKNALYKLNELNRLLNVLVPHLKKKRDNDESYKIIPLVNFILSLCEGPIFNVSPVLAKRYHLLCRFQLIKLSEVQQRLSTNFIDVEGWMFPEEVPLDHYKSCIYNNSLQWKILNSLSCIAQNAIKIYNAKLRQILLERDAYKARSLPFDTSIIEDLLNPVEMTLILDLAVLINDPVRDKSTHSFYKLQWQVMEKLNSCVHSKIFPILRTYYNQLQKFSETRPTSLSNLQKDLPHWEWTLHRIYTFHLRVFSVLCVIISFSRQIFLPNKQHFLDIKTRLSSENVYHYDLIICELMALLSPECDDVTALFELQENLKFWTQTARTDNNSSRTPIFHLQPGLVVELFNNHICKIIPKLRSIMGLLSNWMDCWKYIEKNYKTFDETNDLRENLKEKLERDKALYLEVKNAKSKLKKKPSITKLPASSSPSPSPTSSASPSRQASLESIRTRARAHLASNSSRSPSVSPVRTTFNNKNAETKKSVVSPEKRKLINGRRPRSSSLQSYTNKQQTSYLNSTRHPSIAPPSKLNNQRSNSLQSSTMTLNQKIVQDTVRHLMNKSASTPNPSASSSLAPSPKVSSINNTSSGKSSSTLIANSSDTLAIETLTLDPESNSSELSIKRVRFAGVPPMTEAENPKPTKVGWYKKPAVLHYPPIPASAMIKPLQHKSKYNTLRQEEGFTFRKSLRDGLEWENGESGSETTMMPFGIEIKESTGHRIASKIRSKLR
B3: CDC14 (protein, UniProt Q00684 1-551)
chain: MRRSVYLDNTIEFLRGRVYLGAYDYTPEDTDELVFFTVEDAIFYNSFHLDFGPMNIGHLYRFAVIFHEILNDPENANKAVVFYSSASTRQRANAACMLCCYMILVQAWTPHQVLQPLAQVDPPFMPFRDAGYSNADFEITIQDVVYGVWRAKEKGLIDLHSFNLESYEKYEHVEFGDFNVLTPDFIAFASPQEDHPKGYLATKSSHLNQPFKSVLNFFANNNVQLVVRLNSHLYNKKHFEDIGIQHLDLIFEDGTCPDLSIVKNFVGAAETIIKRGGKIAVHCKAGLGRTGCLIGAHLIYTYGFTANECIGFLRFIRPGMVVGPQQHWLYLHQNDFREWKYTTRISLKPSEAIGGLYPLISLEEYRLQKKKLKDDKRVAQNNIEGELRDLTMTPPSNGHGALSARNSSQPSTANNGSNSFKSSAVPQTSPGQPRKGQNGSNTIEDINNNRNPTSHANRKVVIESNNSDDESMQDTNGTSNHYPKVSRKKNDISSASSSRMEDNEPSATNINNAADDTILRQLLPKNRRVTSGRRTTSAAGGIRKISGSIKK
B4: GLC8 (protein, UniProt P41818 1-229)
chain: MGGILKNPLALSPEQLAQQDPETLEEFRRQVYENTQKNAKLTSHKRNIPGLDNTKEEGEIIGTSSTFLPKDTLSLKHEQDMLAKMTPEERVQWNQRNLAENEITKKQFQDIHIDEPKTPYQGAVDPHGEYYRVDDDEDEDNSDKKPCQVANDDIDDLSLGEPEFEIKENKQPDFETNDENDEDSPEARHKKFEEMRKKHYDVRAIFNKKSREALKDEDEDEDDSTTKEP

Molecular target: T1, 6HIS-HA-JHD2 (S. cerevisiae)
Test: affinity purification with mass spectrometry; whole cell extracts of a wild-type strain with 6HIS-HA-JHD2 induced from the GAL1 promoter for 6 hours; Ni-NTA agarose and anti-HA agarose beads at 4°C for 24 hours; proteins found with the empty vector strain excluded

binding, binds:
B1, B2, B3, B4

Results are given in words; binding and its absence hold for the method and conditions named. Binding seen in cells or lysates may run through a third protein. A yes stands for co-enrichment or nearness to the bait. Other partners may have been found. Where a sequence is shown, tags or fusion partners need not be part of it.
